# Library screening results

Protein sequences, listed by entry. Tags and fused reporters are not part of them.
UniProt E9BF75, entry or part of it: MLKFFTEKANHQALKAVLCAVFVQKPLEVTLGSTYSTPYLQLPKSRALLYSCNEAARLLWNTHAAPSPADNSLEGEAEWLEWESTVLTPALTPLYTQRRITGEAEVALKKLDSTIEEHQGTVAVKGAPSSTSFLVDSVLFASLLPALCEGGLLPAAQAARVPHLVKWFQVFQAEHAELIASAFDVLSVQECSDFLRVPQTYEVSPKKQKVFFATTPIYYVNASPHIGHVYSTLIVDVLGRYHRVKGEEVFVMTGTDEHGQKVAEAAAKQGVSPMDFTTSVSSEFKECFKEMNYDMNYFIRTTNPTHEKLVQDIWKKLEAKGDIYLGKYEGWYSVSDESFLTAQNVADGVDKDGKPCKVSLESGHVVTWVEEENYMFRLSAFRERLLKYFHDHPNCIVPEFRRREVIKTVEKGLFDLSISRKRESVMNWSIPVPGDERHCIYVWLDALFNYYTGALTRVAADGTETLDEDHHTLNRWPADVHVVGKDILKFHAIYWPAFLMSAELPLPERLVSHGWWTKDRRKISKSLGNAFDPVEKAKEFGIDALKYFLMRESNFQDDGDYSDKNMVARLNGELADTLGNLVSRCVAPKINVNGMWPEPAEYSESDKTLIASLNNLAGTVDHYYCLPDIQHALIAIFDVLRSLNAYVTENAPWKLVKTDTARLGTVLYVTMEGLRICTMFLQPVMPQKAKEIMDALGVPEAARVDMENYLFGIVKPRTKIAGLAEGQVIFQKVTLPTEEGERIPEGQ

A: 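Assay on Mycobacterium tuberculosis, filed only as a heat shock assay from Cornell; the read-out is not stated. The concentration is filed as 10 mM, unlikely as a test dose, so the dose is not known. The record gives no direction; compounds that gave an IC50 in retests scored well above the rest, so higher reads as stronger inhibition. About 69,000 compounds were tested under these conditions; 1.4% (about 930) showed 50% or more at least once.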
B: 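Primary screen of methionyl-tRNA synthetase; the read-out is not stated. Target: Methionyl-tRNA synthetase (putative), Leishmania donovani (UniProt E9BF75). The test concentration is not given. The values are filed as inhibition. Size under these conditions: about 68,000 compounds, about 24 of them at 50% or above in at least one test.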
C: 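Whole-cell assay for inhibitors of Mycobacterium tuberculosis growth, labelled Cornell in the record; the read-out is not stated. The concentration is filed as 10 mM, unlikely as a test dose, so the dose is not known. Higher means stronger inhibition (inferred from two other growth screens of the library). Size under these conditions: about 53,000 compounds, about 900 of them at 50% or above in at least one test.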

Results are percentages, as filed. The controls that fix the scale are not given in the record; negative values are as filed. Compounds were drawn at random from those tested, without regard to their results. A dash means the value is not listed here; it may have been measured.

{"smiles": "CC(C)Nc1nc2c(cc1C(=O)NCC1CC1)CCN(C)CC2.O=C(O)C(F)(F)F.O=C(O)C(F)(F)F", "A": -31.19, "C": 18.71}
{"smiles": "Cc1ccc(S(=O)(=O)NC(=O)CCC2CCCO2)cc1", "stereo": "stereo not drawn", "A": 6.825, "B": 18.1}
{"smiles": "Cc1ccsc1CNC1CCCN(Cc2noc(C3CC3)n2)C1", "stereo": "stereo not drawn", "A": -8.561, "B": 20.67}
{"smiles": "COCCN(Cc1ccoc1)S(=O)(=O)c1ccc(F)c(C)c1", "A": -0.741, "B": 13.8, "C": 12.9}
{"smiles": "CC(=O)N[C@@H]1CN(C2CCN(c3ccccc3F)CC2)C[C@H]1C(C)C", "A": -1.737, "B": 10.07, "C": 20.24}
{"smiles": "[H][C@@]12COC[C@]1(C(=O)NCc1ccccn1)CN(c1cc(OC)ncn1)C2", "A": -34.16, "C": 11.46}
{"smiles": "COc1cccc(CNC(CN2CCN(C)CC2)c2ccccc2)c1", "stereo": "stereo not drawn", "A": -21.94, "B": 13.01, "C": 13.75}
{"smiles": "COc1cc(N2CCC3(CCN(Cc4cccnc4)C3=O)C2)ncn1", "stereo": "stereo not drawn", "A": 19.98, "B": 13.51, "C": -0.06932}
{"smiles": "COc1ccc(S(=O)(=O)NC(=O)c2c(C)noc2C(C)C)cc1C", "A": 7.524, "B": 13.05, "C": 31.62}
{"smiles": "Cc1nc(C(=O)N(CC(=O)N(C)C)CC(F)(F)F)c2ccccn12", "A": 6.071, "B": 13.17, "C": 21.16}
{"smiles": "CN(Cc1ccc(-n2cccn2)cc1)c1nc(N)nc2c1CCNCC2", "A": -20.6, "B": 4.348, "C": -1.214}
{"smiles": "CCN(Cc1noc(C)n1)C(=O)CC1C(=O)NCCN1CC(C)(C)C", "stereo": "stereo not drawn", "A": -17.37, "B": 3.125}
{"smiles": "CNc1cc(C2CN(Cc3csc(C)n3)CCO2)nc(C)n1", "stereo": "stereo not drawn", "A": -32.62, "B": 12.26, "C": -12.15}
{"smiles": "COCCn1c(-c2cccc(OC)c2)cnc1NC(=O)NCC(C)C", "A": 22.14, "B": 16.91, "C": 9.249}
{"smiles": "COc1ccc(C(=O)N2CCOc3ccncc32)cc1", "A": 7.314, "B": 13.36, "C": 9.514}
{"smiles": "CN1C(=O)[C@H]2CC[C@@H]1CN(C(=O)Nc1ccccc1C(F)(F)F)C2", "B": 16.62}
{"smiles": "CCN(c1cc(C)cc(C)c1)S(=O)(=O)c1cc(C(=O)O)cs1", "A": -13.33, "B": 16.52, "C": 37.94}
{"smiles": "O=C(c1c(O)cc(F)cc1F)N1CCc2cnccc21", "A": -15.54, "B": 6.162, "C": 11.87}
{"smiles": "CCC(C)(COc1ncccc1Cl)NCC(=O)NC1CCCCC1", "stereo": "stereo not drawn", "A": -20.01, "B": 12.72, "C": 11.18}
{"smiles": "CN1CCN(CCCN(C)S(=O)(=O)CC2CCCCC2)CC1", "A": -12.25, "B": 15.68, "C": -3.23}
{"smiles": "CN1CCCC(c2ccc(N3CCOCC3)cn2)C1.Cl", "stereo": "stereo not drawn", "A": -9.892, "C": 35.11}
{"smiles": "O=C(NCCC1CC1)NCc1cccc(-n2ccnc2)c1", "A": -3.834, "B": 20.41, "C": 18.66}
{"smiles": "O=S1(=O)NC[C@H]2CCN(Cc3ccccc3)CC[C@H]21", "B": 14.19}
{"smiles": "O=C(O)c1ccn(-c2ccc(NC(=O)c3ccccc3Cl)cc2)n1", "A": -12.21, "B": -0.2825, "C": -3.275}
{"smiles": "CN(CCCO)c1nc(-c2ccc(C(N)=O)cc2)nc2c1CCNC2", "A": 4.836, "B": 19.06}
{"smiles": "O=C(NCCCn1cccn1)NCC(c1ccco1)N1CCCC1", "stereo": "stereo not drawn", "A": -0.8534, "B": 28.18}
{"smiles": "CC(=O)N1CCN([C@@H]2CN(C(=O)c3ccccc3C)C[C@H]2O)CC1", "A": -20.99, "B": 20.25, "C": -3.259}
{"smiles": "O=C1OCCN1CCS(=O)(=O)c1cccc(Br)c1", "A": 17.18, "B": 8.803, "C": 0.1735}
{"smiles": "CO[C@@H]1CCN(c2nnc(C)s2)C[C@@H]1Cc1ccccc1.O=C(O)C(F)(F)F", "A": 6.778, "C": 33.57}
{"smiles": "CSc1nccc(N2CCCC(c3nccn3C(C)C)C2)n1", "stereo": "stereo not drawn", "A": -4.24, "B": -4.469, "C": -30}
{"smiles": "CN(C)c1nc(CNC(=O)NC2COc3ccccc32)cs1", "stereo": "stereo not drawn", "A": -21.69, "B": 15.38}
{"smiles": "CN(C)Cc1nn(C)c2c1CN(S(=O)(=O)c1ccccc1F)C2", "A": -6.061, "B": 4.965, "C": 7.134}
{"smiles": "Cc1nn(C)c(Cl)c1C1CCCN1Cc1nc(-c2ccco2)no1", "stereo": "stereo not drawn", "A": -0.2732, "B": 17.22, "C": 19.98}
{"smiles": "CC(=O)NCCNCc1cn(CCN2CCSCC2)nc1C", "A": -14.97, "B": 9.779, "C": 17.99}
{"smiles": "COc1ccc(CN2C[C@H]3C[C@H](CN(C)C)O[C@H]3C2)cc1", "B": 7.843}
{"smiles": "CSc1ccsc1C(=O)NS(=O)(=O)c1ccc(F)cc1", "A": -17.78, "B": 15.27, "C": 10}
{"smiles": "OC1CCCN(Cc2ccc(F)c3cccnc23)C1", "stereo": "stereo not drawn", "A": 6.302, "B": 21.12}
{"smiles": "Cc1nc(C)n(CC2CCCN2Cc2ccccn2)n1", "stereo": "stereo not drawn", "A": 33.4, "B": 11.34, "C": -11.46}

The last 3 entries again:

SMILES,A,B,C
CSc1ccsc1C(=O)NS(=O)(=O)c1ccc(F)cc1,-17.78%,15.27%,10%
OC1CCCN(Cc2ccc(F)c3cccnc23)C1 (stereo not drawn),6.302%,21.12%,-
Cc1nc(C)n(CC2CCCN2Cc2ccccn2)n1 (stereo not drawn),33.4%,11.34%,-11.46%

Source: ChEMBL document CHEMBL3988442, “University of Dundee, Small-Polar-MMV Screening Library” (2021).